Test results published in ChEMBL document CHEMBL3862026, “Synthesis and biological evaluation of ranitidine analogs as multiple-target-directed cognitive enhancers for the treatment of Alzheimer's disease” (Bioorg Med Chem Lett, 2016).

By UniProt entry, the sequences of proteins in these tests, tags left out.
UniProt P81908, whole entry: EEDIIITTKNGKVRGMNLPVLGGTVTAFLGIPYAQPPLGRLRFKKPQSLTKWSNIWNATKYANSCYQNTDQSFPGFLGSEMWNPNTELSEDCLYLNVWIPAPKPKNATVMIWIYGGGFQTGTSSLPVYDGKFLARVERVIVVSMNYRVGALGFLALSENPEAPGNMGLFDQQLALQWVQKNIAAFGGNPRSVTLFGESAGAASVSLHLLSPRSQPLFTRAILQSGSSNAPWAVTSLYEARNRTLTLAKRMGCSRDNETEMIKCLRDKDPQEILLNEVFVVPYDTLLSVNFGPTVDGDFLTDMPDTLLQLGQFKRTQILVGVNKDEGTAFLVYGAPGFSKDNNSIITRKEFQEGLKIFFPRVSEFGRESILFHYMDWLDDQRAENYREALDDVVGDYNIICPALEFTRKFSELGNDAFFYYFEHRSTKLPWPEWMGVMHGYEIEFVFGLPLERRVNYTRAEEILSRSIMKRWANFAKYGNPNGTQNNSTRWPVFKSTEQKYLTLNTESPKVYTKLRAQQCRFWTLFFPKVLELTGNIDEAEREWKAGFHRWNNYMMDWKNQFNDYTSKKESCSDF

Target: Cholinesterase (Equus caballus, UniProt P81908)
Test: Inhibition of equine serum BuChE using butyrylthiocholine as substrate preincubated for 8 mins followed by substrate addition by Ellman's method

Compound: CN(C)Cc1ccc(CSCCN2C(=O)c3cccc([N+](=O)[O-])c3C2=O)o1
- IC50: > 50 µM
